# Test results from US20210032312A1.
# Chains of the proteins cited; added tags and fusions are not shown. Residues count along the entry.
# UniProt P01732, residues 22-182: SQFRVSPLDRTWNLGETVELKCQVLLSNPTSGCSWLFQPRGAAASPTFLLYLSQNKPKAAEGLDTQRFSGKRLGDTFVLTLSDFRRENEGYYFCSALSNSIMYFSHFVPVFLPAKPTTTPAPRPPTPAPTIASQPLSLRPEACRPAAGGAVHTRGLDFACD
# Where a chain is given by its changes, count along the chain named. Results are given in words; binding and its absence hold for the method and conditions named. Some binding calls cover weakened binding; strength is not graded here.
# B1: P283ER9P1365_B6 (designed binder)
# chain: LPAPKNLVVSRVTEDSARLSWTAPDAAFDSFGIGYAEPVVTGEAISLSVPGSERSYDLTGLKPGTEYWVVIIGVKGGINSYPLGAIFTT
# B2: P282BR9P1357_D2 (designed binder)
# chain: LPAPKNLVVSRVTEDSARLSWIKDGHPRHFDSFLIQYQESEKVGEAIVLTVPGSERSYDLTGLKPGTEYTVSIYGVDVVYDRGQLISSNPLSAIFTT
# B3: P283ER9P1365_A7 (designed binder)
# chain: LPAPKNLVVSRVTEDSARLSWTAPDAAFDSFYIPYWESEVYGEAIALPVPGSERSYDLTGLKPGTEYQVSIIGVKGGVYSQPLAAIFTT
# B4: P283ER9P1365_G1 (designed binder)
# chain: B3 chain with W36R, V40F, Y41R, P48S, E66K, Q68R, S70I, V78E, Y79F, A84G
# B5: P283ER9P1365_H3 (designed binder)
# chain: B3 chain with W36R, V40F, Y41R, E66K, Q68R, S70I, V78E, Y79F, A84S
# B6: P283ER9P1365_C1 (designed binder)
# chain: B3 chain with P50T
# B7: P283ER9P1365_F4 (designed binder)
# chain: B3 chain with W36R, V40F, Y41R, E66K, Q68S, S70I, V78E, Y79F, A84G
# B8: P283ER9P1365_E2 (designed binder)
# chain: B3 chain with W36R, V40F, Y41R, E66K, Q68R, S70I, V78E, Y79F
# B9: P282BR9P1357_D12 (designed binder)
# chain: LPAPKNLVVSRVTEDSARLSWGQYITAFSFDSFLIQYQESEKVGEAIVLTVPGSERSYDLTGLKPGTEYTVSIYGVDVAWFQGKPTWSNPLSAIFTT
# B10: P283BR9P1363_F2 (designed binder)
# chain: LPAPKNLVVSRVTEDSARLSWYRPDNRAGAFDSFLIQYQESEKVGEAIVLTVPGSERSYDLTGLKPGTEYTVSIYGVDVKYDIDSRPISSNPLSAIFTT
# B11: P283DR9P1364_F6 (designed binder)
# chain: LPAPKNLVVSRVTEDSARLSWTAPDAAFDSFTIAYPEREQDKWGEAIVLTVPGSERSYDLTGLKPGTEYWVIIQGVKGGRPSTPLSAILTT
# B12: P283DR9P1364_A4 (designed binder)
# chain: LPAPKNLVVSRVTEDSARLSWTAPDAAFDSFYIAYPEWPVQGEAIVLTVPGSERSYDLTGLKPGTEYFVIIYGVKGGDWSEPLSAIFTT
# B13: P283DR9P1364_G10 (designed binder)
# chain: B12 chain with Y32S, V40G, Q41S, I70V, Y72F, D78S, W79Q, E81W
# B14: P283DR9P1364_H11 (designed binder)
# chain: B12 chain with Y32D, W38L, V40L, Q41G, Y72W, W79R
# B15: P283DR9P1364_D9 (designed binder)
# chain: B12 chain with Y32G, A34S, V40P, Q41L, F68W, Y72F, D78E, W79R, E81W
# B16: P283DR9P1364_B4 (designed binder)
# chain: B12 chain with Y32A, A34S, V40P, Q41P, F68W, Y72L, W79Q, E81W
# B17: P283DR9P1364_F2 (designed binder)
# chain: B12 chain with Y32W, Q41P, Y72Q, D78F, W79G, E81F
# B18: P283DR9P1364_B11 (designed binder)
# chain: B12 chain with A34S, P39E, V40Q, Q41L, I70V, D78A, W79L, E81A
# B19: P283DR9P1364_E5 (designed binder)
# chain: B12 chain with Y32W, A34S, Q41P, F68W, Y72Q, D78K, W79L, E81W
# B20: P283DR9P1364_H1 (designed binder)
# chain: B12 chain with Y32Q, A34S, Q41H, F68W, Y72W, D78R, W79Q, E81W
# B21: P283FR9P1366_A1 (designed binder)
# chain: B12 chain with Y32W, A34T, Q41P, F68A, I70F, Y72W, W79A
# B22: P283DR9P1364_E9 (designed binder)
# chain: B12 chain with Y32D, V40T, Q41K, I70V, Y72N, D78W, W79R, E81F
# B23: P283DR9P1364_A7 (designed binder)
# chain: B12 chain with Y32R, Q41R, E43D, F68W, Y72Q, D78T, W79D, E81F
# B24: P283DR9P1364_D11 (designed binder)
# chain: B12 chain with Y32D, V40P, Q41K, I70V, D78I, W79H, E81A
# B25: P283DR9P1364_B1 (designed binder)
# chain: B12 chain with A34T, W38I, V40L, Q41G, I70V, D78L, W79L, E81S
# B26: P283DR9P1364_C10 (designed binder)
# chain: B12 chain with Y32Q, V40K, Q41D, F68A, I70F, Y72W, D78V, W79Y, E81N
# B27: P283DR9P1364_E7 (designed binder)
# chain: B12 chain with Y32N, Q41R, F68W, W79R, E81N
# B28: P283DR9P1364_H6 (designed binder)
# chain: B12 chain with Y32I, W38T, Q41R, Y72I, D78Q, W79E, E81F
# B29: P283DR9P1364_G9 (designed binder)
# chain: B12 chain with Y32G, A34W, Q41G, F68W, I70N, Y72S, D78E, W79Y, E81F
# B30: P283DR9P1364_E3 (designed binder)
# chain: B12 chain with Y32G, W38L, V40I, Q41G, Y72R, D78T, W79L, E81P
# B31: P283DR9P1364_E8 (designed binder)
# chain: B12 chain with Y32S, Q41H, D78V, W79L
# B32: P283DR9P1364_D8 (designed binder)
# chain: B12 chain with Y32Q, W38T, V40I, Y72H, D78I, W79T, E81F
# B33: P283ER9P1365_G3 (designed binder)
# chain: LPAPKNLVVSRVTEDSARLSWTAPDAAFDSFGISYYEWAPNGEAIQLSVPGSERSYDLTGLKPGTEYHVVIIGVKGGEPSHPLGAIFTT
# B34: P282BR9P1357_C10 (designed binder)
# chain: LPAPKNLVVSRVTEDSARLSWWSNDNRPIFDSFLIQYQESEKVGEAIVLTVPGSERSYDLTGLKPGTEYTVSIYGVDVKWEGNRPVASNPLSAIFTT
# B35: P283BR9P1363_G2 (designed binder)
# chain: B34 chain with W22P, S23K, D25Q, N26T, R27N, P28R, I29H
# B36: P283BR9P1363_G7 (designed binder)
# chain: B34 chain with W22S, S23A, N24K, D25K, N26F, R27P, P28R, I29H
# B37: P283BR9P1363_E6 (designed binder)
# chain: B34 chain with W22Y, S23A, N24R, D25K, N26F, R27I, P28S, I29P
# B38: P283BR9P1363_F4 (designed binder)
# chain: B34 chain with W22E, S23R, N24I, D25V, N26Q, R27T, I29H
# B39: P282BR9P1357_E5 (designed binder)
# chain: LPAPKNLVVSRVTEDSARLSWWPRKYQRPFDSFLIQYQESEKVGEAIVLTVPGSERSYDLTGLKPGTEYTVSIYGVDIEWIGNRPIASNPLSAIFTT
# B40: P283ER9P1365_A1 (designed binder)
# chain: LPAPKNLVVSRVTEDSARLSWTAPDAAFDSFGIAYVEWWHRGEAISLPVPGSERSYDLTGLKPGTEYNVIITGVKGGIPSHPLGAIFTT
# B41: P282AR9P1356_A10 (designed binder)
# chain: LPAPKNLVVSRVTEDSARLSWHTATNSFDSFLIQYQESEKVGEAIVLTVPGSERSYDLTGLKPGTEYTVSIYGVDVDYNPTGRPVSSNPLSAIFTT
# B42: P283DR9P1364_H9 (designed binder)
# chain: LPAPKNLVVSRVTEDSARLSWTAPDAAFDSFSISYIEYPEIPGGEAIVLTVPGSERSYDLTGLKPGTEYWVPIWGVKGGIQSWPLSAIFTT
# B43: P283DR9P1364_F8 (designed binder)
# chain: LPAPKNLVVSRVTEDSARLSWTAPDAAFDSFAIAYPEWPPGEAIVLTVPGSERSYDLTGLKPGTEYFVIIYGVKGGWTSPPLSAIFTT
# B44: P283BR9P1363_F6 (designed binder)
# chain: LPAPKNLVVSRVTEDSARLSWPEEAVTATSFDSFLIQYQESEKVGEAIVLTVPGSERSYDLTGLKPGTEYTVSIYGVDVKWEGNRPVASNPLSAIFTT
# B45: P283BR9P1363_G5 (designed binder)
# chain: B44 chain with P22Y, E23R, E24A, A25T, V26T, T27P, T29P, S30H
# B46: P282BR9P1357_C4 (designed binder)
# chain: B44 chain with K5N, E23F, E24V, A25S, V26Q, T27N, A28K, T29P, S30H
# Molecular target: recombinant human CD8 alpha fused to Fc fragment of human IgG1 (human) (UniProt P01732)
# Test: ELISA, biotinylated CD8W7 or CD8W13
row,binding,Binder
1,binds,B1
2,binds,B2
3,binds,B3
4,binds,B4
5,binds,B5
6,binds,B6
7,binds,B7
8,binds,B8
9,binds,B9
10,binds,B10
11,binds,B11
12,binds,B12
13,binds,B13
14,binds,B14
15,binds,B15
16,binds,B16
17,binds,B17
18,binds,B18
19,binds,B19
20,binds,B20
21,binds,B21
22,binds,B22
23,binds,B23

row,binding,Binder
1,binds,B24
2,binds,B25
3,binds,B26
4,binds,B27
5,binds,B28
6,binds,B29
7,binds,B30
8,binds,B31
9,binds,B32
10,binds,B33
11,binds,B34
12,binds,B35
13,binds,B36
14,binds,B37
15,binds,B38
16,binds,B39
17,binds,B40
18,binds,B41
19,binds,B42
20,binds,B43
21,binds,B44
22,binds,B45
23,binds,B46
